Binding data for one substance are collected here from publication PMC10926623.

Chains of the proteins cited; added tags and fusions are not shown.
UniProt P26446: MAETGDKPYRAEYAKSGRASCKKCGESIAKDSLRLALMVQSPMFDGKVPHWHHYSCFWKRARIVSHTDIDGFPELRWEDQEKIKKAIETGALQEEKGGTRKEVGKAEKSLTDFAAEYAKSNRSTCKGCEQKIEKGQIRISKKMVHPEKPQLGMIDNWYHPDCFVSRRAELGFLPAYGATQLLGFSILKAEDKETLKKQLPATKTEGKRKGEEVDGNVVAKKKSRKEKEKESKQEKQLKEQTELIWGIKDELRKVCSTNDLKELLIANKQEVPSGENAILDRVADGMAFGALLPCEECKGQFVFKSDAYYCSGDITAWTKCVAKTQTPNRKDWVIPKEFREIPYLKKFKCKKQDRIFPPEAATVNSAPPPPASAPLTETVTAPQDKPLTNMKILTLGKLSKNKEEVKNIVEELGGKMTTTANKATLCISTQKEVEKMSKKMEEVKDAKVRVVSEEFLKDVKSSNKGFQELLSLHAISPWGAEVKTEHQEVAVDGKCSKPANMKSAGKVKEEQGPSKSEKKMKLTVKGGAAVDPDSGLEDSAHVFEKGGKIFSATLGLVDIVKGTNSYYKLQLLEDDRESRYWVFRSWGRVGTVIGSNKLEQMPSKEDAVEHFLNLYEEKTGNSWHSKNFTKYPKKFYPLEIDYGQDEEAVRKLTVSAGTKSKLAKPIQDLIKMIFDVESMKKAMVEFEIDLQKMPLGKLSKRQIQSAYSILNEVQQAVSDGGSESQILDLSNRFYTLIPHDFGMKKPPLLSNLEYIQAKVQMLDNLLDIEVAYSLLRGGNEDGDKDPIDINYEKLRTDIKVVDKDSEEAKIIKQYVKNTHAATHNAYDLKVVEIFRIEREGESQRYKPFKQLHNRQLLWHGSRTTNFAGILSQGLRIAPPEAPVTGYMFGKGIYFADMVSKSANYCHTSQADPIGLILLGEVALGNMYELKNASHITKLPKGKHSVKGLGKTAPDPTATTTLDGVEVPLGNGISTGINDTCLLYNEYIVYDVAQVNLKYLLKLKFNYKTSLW
UniProt Q9YH06: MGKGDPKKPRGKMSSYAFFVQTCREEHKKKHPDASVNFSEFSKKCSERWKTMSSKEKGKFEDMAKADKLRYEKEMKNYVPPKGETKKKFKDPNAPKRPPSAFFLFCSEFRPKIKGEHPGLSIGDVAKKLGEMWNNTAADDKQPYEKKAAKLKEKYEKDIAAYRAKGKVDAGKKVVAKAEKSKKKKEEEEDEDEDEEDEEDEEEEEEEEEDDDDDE

No constants are given. Whether binding was seen depends on the method and setting. Binding seen in cells or lysates may run through a third protein. Some results given as binding are weak or reduced against the parent protein; the word gives no strength.

This test addresses Poly(ADP-ribose) polymerase 1 (chicken (endogenous in primary granulosa cells)) (UniProt P26446). Put plainly: co-IP; IP with PARP1 antibody from granulosa cells; Western blot with PARP1 and HMGB1 antibodies. On the technique in general: Immunoblotting shows a protein as a band on a membrane.

On to “High mobility group box 1 (from UniProt Q9YH06 1-215)”, for which the binding entry is reported as “binds”.
